## Library screen at single concentrations

The chains behind the UniProt entries cited, without tags or fusion partners. Residues count along the entry.
UniProt A4I591, 1-473: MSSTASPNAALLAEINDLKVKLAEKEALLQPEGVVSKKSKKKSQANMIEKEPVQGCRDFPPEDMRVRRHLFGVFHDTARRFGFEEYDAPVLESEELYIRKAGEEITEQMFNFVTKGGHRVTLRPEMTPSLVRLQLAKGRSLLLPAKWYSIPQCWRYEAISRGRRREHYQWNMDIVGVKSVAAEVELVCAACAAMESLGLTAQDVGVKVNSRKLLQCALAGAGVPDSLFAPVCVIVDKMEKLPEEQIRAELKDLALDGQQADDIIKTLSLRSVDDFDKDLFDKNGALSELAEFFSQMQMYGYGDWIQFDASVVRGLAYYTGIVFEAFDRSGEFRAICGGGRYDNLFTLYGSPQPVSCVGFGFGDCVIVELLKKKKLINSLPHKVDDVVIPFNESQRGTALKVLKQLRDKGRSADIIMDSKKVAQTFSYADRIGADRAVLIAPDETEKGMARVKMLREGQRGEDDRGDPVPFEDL
UniProt Q4DA54, 1-478: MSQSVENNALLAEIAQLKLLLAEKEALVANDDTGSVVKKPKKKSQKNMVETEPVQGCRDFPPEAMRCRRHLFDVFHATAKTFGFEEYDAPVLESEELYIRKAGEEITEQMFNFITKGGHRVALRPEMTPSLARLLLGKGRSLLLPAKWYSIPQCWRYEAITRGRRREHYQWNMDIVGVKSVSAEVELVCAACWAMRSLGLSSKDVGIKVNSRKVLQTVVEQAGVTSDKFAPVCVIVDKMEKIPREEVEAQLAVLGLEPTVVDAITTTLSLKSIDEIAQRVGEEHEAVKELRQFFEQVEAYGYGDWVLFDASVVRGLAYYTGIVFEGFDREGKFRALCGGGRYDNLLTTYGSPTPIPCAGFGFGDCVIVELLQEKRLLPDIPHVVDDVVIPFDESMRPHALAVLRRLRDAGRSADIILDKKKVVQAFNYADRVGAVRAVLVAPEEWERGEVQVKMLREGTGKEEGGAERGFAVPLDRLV
UniProt P9WPC5, whole entry: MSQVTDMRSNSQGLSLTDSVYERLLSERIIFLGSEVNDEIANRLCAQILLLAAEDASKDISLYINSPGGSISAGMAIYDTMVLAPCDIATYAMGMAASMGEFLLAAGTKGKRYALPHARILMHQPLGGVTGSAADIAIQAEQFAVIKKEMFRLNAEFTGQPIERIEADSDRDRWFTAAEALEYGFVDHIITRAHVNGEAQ
UniProt P9WPC3, whole entry partner: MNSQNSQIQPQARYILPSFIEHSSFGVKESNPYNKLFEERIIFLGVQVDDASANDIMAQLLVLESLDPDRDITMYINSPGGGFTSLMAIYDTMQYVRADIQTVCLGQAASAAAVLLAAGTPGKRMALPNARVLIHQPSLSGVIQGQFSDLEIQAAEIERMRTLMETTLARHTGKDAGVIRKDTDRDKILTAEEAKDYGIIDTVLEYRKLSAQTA

A: 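Enzyme assay of histidyl-tRNA synthetase; the read-out is not stated. Target: Histidine-tRNA ligase, Leishmania infantum (UniProt A4I591). Tested at 30 µM. The record gives no direction; compounds that gave an IC50 in retests scored well above the rest, so higher reads as stronger inhibition. The assay is labelled LdHisRS but filed under L. infantum. Size under these conditions: about 69,000 compounds, about 410 of them at 50% or above in at least one test.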
B: 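Enzyme assay of histidyl-tRNA synthetase; the read-out is not stated. Target: Histidine-tRNA ligase, Trypanosoma cruzi CL Brener (UniProt Q4DA54). Compounds at 30 µM. Direction is inferred from retests: higher values go with stronger inhibition. Of about 69,000 compounds tested this way, about 31 (0.045%) reached 50% or more in at least one test.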
C: 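ClpP1P2, Mycobacterium tuberculosis (UniProt P9WPC5 and UniProt P9WPC3). Protease assay of ClpP1P2, read by the AMC dye that it sets free. Compounds at 50 µM. Higher reads as stronger inhibition, judged from the few compounds that gave an IC50. Most other retested compounds had strongly negative values. Of about 69,000 compounds tested this way, about 10 (0.015%) reached 50% or more in at least one test.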

Each number is a percent effect as filed.
The controls that fix the scale are not given in the record; negative values are as filed.
This is an unselected part of the compounds tested.

compound: Cc1cnc(N2CCC3(CC2)CCN(c2cncnc2)C3=O)nc1
A: 3.448
B: 7.595
C: 8.785

compound: Cc1nc2ccc(CN3CC4(CCOC4)CCC3=O)cc2[nH]1 (stereo unspecified)
A: 8
B: 3.804
C: 1.817

compound: CN(CC(=O)NCc1cccnc1N1CCCCC1)C(=O)c1cccs1
A: 5.357
B: 3.458
C: -28.9

compound: O=C1NCCCc2[nH]c(Cc3cccc(Cl)c3)nc21
A: 11.11
B: 6.667
C: -4.373

compound: CS(=O)(=O)NCC1CCCN(c2ccc(C(F)(F)F)cn2)C1 (stereo unspecified)
A: 10.67
B: 1.63
C: 8.881

compound: O=S(=O)(c1ccccc1)N1CCC[C@]2(C[C@@H](OCC3CC3)CO2)C1
A: -4.587
B: 4.202
C: 4.667

compound: CCc1nc(CN(C)C(=O)c2cc(CN(CC)CC)c(CC)o2)no1
A: 1.099
B: 5.941
C: -11.3

compound: CC(C)Cc1nc(CN(C)CCOc2ccccc2F)no1
A: -2.941
B: 5.82
C: -4.604

compound: COc1ccc(C2CC(=O)Oc3cc(C)[nH]c(=O)c32)c(OC)c1 (stereo unspecified)
A: 20.51
B: 4.819
C: -7.552

compound: CC(C)Cc1noc(CN2CCN(S(C)(=O)=O)CC2)n1
A: 12.84
B: 3.529
C: -7.489

compound: CCC(=O)N1CCC(c2cc(Nc3ncccn3)nc(C)n2)C1 (stereo unspecified)
A: 12
B: 3.745
C: -9.179

compound: Cc1nc(C)n(CC2CN(Cc3cccc(C#N)c3)CCO2)n1 (stereo unspecified)
A: 35.71
B: 3.008
C: 5.714

compound: Cc1csc2c(=O)n(CCN3CCNCC3)cnc12
A: -5
B: 2.597
C: 3.728

compound: O=C(CCc1ccsc1)N(Cc1ccccn1)C1CC1
A: 10.53
B: 9.497
C: 9.106

compound: CC(NCc1nnc2n1CCCC2)c1nc(Cc2ccccc2)no1 (stereo unspecified)
A: 11.11
B: 9.091
C: -4.272

compound: CN(C)CC(=O)N1Cc2nnn(C)c2C(COCC2CC2)C1 (stereo unspecified)
A: 16
B: 3.093
C: -3.582

compound: Cc1noc([C@H]2C[C@@H]3CCN(C(=O)N(C)C)C[C@H]3O2)n1
A: 1.504
B: 3.867
C: -2.225

compound: COC1COC2(CCN(C(=O)c3ccccc3F)CC2)C1 (stereo unspecified)
A: 9.91
B: 2.21
C: -3.864

compound: CCN(Cc1cccc(-c2ccncc2)c1)S(C)(=O)=O
A: 13.7
B: 2.186
C: -4.659

compound: CC(C)N(C)CCNC(=O)N1CCN(Cc2ccon2)CC1
A: -0.8929
B: 3.333
C: -12.43

compound: CCC(C)CN1CCC(n2cc(C3CCCC3)nn2)CC1 (stereo unspecified)
A: 6.25
B: 4.469
C: -7.699

compound: O=C1COC2(CCN(Cc3ccsc3)CC2)CN1
A: 17.95
B: 3.659
C: 13.29

compound: Cc1cccc(CN2CCCC3(CCN(c4cccnc4)C3=O)C2)n1 (stereo unspecified)
A: 25.71
B: 7.843
C: -0.4158

compound: Cn1nc2c(cc1=O)CN(Cc1nc(-c3ccccn3)no1)CC2
A: 99.08
B: 4.118
C: -45.08

compound: CCCn1ncc(C(=O)N2CCN(C3CCCC3)CC2)c1C
A: -1.754
B: 2.186
C: -4.44

compound: COc1ccc(NC(=O)CNc2cccc3c2CCCC3)c(OC)c1
A: 3.774
B: 0.8475
C: 4.143

compound: COC(=O)[C@H]1C[C@@H](O)CCN1S(=O)(=O)c1c(C)cc(OC)c(C)c1C
A: 18
B: 9.639
C: 1.537

compound: CCCc1nnnn1CC(=O)NCc1cccc(C)c1
A: 9.524
B: 10.89
C: -2.475

The values are deposited in ChEMBL (CHEMBL3988442, “University of Dundee, Small-Polar-MMV Screening Library” (2021)).